System: brain gene expression (DEGs)
Experiment: DNA microarray analysis in the brain of Tg2576 mice fed RA
Format: in vivo
Settings: 0.5% RA diet for 10 months; FDR <0.05

Which results are given for O=C(/C=C/c1ccc(O)c(O)c1)O[C@H](Cc1ccc(O)c(O)c1)C(=O)O [RA, rosmarinic acid]?
downregulated probe sets (DEGs) vs control group: 636; upregulated probe sets (DEGs) vs control group: 367

Source: PMC6581955, “Rosmarinic acid suppresses Alzheimer’s disease development by reducing amyloid β aggregation by increasing monoamine secretion” (Scientific Reports, 2019)
